Results taken from paper doi:10.1101/2025.11.22.689900.
Results are given in words; binding and its absence hold for the method and conditions named. Binding seen in cells or lysates may run through a third protein. Some results given as binding are weak or reduced against the parent protein; the word gives no strength. Where a sequence is shown, tags or fusion partners need not be part of it.

Amino acid sequences for entries named in this document (tags omitted).
UniProt P56693: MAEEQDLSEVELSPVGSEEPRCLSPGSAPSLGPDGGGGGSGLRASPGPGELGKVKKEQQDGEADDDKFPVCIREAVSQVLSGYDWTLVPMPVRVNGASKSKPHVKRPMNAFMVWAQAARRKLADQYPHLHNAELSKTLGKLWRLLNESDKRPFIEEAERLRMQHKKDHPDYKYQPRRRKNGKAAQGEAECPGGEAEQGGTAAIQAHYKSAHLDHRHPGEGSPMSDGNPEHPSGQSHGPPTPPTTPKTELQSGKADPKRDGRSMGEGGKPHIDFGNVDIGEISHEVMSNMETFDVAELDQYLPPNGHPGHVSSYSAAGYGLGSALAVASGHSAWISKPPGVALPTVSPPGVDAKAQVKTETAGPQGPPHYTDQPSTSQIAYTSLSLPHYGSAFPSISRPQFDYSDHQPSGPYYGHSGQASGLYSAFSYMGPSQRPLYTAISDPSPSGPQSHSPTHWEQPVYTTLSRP
UniProt Q04888: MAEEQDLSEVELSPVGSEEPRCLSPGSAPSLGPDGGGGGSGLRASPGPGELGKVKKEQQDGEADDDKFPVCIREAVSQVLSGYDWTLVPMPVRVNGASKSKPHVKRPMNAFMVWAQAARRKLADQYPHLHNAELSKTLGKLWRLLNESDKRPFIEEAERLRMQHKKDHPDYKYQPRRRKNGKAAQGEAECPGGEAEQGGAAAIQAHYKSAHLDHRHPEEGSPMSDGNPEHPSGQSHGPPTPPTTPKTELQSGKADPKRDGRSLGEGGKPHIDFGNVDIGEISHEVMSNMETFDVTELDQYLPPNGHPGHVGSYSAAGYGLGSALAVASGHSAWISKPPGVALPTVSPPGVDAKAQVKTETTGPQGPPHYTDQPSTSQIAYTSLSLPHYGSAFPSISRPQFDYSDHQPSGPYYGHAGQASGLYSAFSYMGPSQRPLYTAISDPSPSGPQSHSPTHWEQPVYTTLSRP

Columns and labels:
GST-tagged WWOX = target: T1, GST-tagged WWOX (UniProt Q9NZC7); assay: pull-down
T1 sequence: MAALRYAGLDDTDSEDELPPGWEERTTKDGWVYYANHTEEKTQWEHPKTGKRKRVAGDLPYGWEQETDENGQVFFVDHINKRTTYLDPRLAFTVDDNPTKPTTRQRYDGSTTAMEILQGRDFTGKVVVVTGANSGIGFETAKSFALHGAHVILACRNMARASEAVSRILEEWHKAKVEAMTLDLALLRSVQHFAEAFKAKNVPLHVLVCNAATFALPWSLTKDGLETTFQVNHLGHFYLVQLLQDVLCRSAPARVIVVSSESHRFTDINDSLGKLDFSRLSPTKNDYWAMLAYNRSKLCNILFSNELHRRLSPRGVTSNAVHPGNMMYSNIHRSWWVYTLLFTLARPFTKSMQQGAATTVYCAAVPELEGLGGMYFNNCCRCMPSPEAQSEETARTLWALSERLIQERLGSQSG

[1] = target: T2, HA-tagged WWOX (knock-in mouse) (mouse (endogenous in cortex of the HA-Wwox knock-in mouse)) (UniProt Q91WL8); assay: co-IP
T2 sequence: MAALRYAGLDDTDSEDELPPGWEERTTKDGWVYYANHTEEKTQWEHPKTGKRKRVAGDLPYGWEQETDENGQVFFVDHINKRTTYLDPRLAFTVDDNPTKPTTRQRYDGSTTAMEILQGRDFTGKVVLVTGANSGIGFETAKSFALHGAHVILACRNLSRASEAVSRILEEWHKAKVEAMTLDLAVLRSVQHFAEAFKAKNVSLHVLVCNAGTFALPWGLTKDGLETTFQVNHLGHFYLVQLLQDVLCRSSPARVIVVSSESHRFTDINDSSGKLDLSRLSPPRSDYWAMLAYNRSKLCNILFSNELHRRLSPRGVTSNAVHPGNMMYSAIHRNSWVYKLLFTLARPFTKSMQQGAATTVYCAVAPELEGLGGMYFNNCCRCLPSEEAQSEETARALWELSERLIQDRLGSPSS

| binding (GST-tagged WWOX) | binding [1] | Substance |
| --- | --- | --- |
| binds |  | SOX10 (doxycycline-inducible plasmid, Addgene #115241) (from UniProt P56693 1-466) |
|  | binds | SOX10 (endogenous, mouse cortex) (from UniProt Q04888 1-466) |
